In the supplement of paper PMC6411743 one finds NP40-soluble protein abundance data, which are given here for 25 targets.

By UniProt entry, the sequences of proteins in these tests, tags left out. Where a name states a change or a piece, a line headed by the entry shows the natural chain unless it says otherwise.
UniProt P0DPI2: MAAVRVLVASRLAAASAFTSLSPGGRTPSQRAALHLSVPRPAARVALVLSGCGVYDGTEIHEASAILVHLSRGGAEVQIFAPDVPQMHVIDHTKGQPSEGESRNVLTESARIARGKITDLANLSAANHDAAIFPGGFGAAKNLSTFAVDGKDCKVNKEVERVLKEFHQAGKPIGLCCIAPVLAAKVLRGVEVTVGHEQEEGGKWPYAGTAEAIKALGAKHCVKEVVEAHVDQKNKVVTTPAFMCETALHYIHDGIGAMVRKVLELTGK
UniProt P17483: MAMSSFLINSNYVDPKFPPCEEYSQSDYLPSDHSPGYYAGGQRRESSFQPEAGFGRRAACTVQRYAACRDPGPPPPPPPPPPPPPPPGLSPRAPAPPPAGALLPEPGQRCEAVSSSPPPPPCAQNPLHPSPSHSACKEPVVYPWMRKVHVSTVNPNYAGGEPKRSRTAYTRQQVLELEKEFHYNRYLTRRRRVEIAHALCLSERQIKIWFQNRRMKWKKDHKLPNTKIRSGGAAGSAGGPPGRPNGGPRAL
UniProt P32519: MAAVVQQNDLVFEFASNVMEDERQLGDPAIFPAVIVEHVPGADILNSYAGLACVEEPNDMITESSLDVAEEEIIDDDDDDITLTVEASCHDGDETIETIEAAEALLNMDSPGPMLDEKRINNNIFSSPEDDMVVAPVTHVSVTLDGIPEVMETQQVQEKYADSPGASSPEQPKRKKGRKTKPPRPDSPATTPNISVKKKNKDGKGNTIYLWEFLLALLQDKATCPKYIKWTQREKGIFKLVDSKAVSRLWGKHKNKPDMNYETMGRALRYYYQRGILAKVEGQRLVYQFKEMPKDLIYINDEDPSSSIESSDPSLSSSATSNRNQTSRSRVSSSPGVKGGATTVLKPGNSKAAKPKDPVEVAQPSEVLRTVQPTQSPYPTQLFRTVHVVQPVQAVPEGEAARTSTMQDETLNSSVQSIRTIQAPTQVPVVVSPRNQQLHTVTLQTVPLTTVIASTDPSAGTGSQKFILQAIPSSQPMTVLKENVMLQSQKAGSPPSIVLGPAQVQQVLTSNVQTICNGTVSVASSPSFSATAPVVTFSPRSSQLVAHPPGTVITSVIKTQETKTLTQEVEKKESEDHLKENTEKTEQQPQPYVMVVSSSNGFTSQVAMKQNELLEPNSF
UniProt P32780: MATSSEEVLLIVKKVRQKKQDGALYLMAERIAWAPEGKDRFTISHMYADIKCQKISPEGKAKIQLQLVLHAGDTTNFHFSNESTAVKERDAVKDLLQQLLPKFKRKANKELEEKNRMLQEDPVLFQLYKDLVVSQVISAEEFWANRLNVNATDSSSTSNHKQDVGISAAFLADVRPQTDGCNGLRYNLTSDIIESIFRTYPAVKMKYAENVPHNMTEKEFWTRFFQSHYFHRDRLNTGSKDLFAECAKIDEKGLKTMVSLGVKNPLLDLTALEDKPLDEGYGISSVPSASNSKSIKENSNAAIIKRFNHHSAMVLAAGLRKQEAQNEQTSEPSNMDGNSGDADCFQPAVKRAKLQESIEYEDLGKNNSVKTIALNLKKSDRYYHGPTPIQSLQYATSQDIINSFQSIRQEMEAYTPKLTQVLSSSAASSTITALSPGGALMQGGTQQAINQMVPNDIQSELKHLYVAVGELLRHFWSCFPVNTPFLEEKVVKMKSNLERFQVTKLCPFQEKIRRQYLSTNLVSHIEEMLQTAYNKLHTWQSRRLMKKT
UniProt P22314: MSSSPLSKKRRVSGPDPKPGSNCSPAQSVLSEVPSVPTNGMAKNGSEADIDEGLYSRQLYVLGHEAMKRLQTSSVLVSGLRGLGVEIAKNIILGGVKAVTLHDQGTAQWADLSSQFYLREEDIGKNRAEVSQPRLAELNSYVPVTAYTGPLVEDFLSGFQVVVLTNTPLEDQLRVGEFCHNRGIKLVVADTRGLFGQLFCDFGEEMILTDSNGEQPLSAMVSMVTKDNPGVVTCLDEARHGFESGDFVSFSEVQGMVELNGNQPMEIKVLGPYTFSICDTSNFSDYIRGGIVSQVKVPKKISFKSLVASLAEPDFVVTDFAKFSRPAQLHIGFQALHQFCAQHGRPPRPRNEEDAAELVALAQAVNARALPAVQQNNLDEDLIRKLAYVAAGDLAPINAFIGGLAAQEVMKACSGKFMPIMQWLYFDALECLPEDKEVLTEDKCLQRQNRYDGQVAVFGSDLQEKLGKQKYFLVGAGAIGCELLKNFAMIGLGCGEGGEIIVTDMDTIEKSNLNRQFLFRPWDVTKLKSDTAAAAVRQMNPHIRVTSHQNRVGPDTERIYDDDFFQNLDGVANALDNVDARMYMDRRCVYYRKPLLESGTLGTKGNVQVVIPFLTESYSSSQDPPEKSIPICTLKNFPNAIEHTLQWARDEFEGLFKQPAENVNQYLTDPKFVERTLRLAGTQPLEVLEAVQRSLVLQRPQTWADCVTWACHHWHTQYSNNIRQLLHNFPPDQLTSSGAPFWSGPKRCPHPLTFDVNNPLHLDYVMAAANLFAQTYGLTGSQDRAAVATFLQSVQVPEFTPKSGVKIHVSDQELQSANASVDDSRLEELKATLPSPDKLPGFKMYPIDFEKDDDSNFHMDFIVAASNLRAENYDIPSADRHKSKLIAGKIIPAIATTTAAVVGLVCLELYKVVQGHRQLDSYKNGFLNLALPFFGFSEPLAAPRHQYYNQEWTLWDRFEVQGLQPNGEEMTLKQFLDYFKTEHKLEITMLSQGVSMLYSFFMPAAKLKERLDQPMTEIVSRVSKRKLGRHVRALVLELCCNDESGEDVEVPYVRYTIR
UniProt P18433: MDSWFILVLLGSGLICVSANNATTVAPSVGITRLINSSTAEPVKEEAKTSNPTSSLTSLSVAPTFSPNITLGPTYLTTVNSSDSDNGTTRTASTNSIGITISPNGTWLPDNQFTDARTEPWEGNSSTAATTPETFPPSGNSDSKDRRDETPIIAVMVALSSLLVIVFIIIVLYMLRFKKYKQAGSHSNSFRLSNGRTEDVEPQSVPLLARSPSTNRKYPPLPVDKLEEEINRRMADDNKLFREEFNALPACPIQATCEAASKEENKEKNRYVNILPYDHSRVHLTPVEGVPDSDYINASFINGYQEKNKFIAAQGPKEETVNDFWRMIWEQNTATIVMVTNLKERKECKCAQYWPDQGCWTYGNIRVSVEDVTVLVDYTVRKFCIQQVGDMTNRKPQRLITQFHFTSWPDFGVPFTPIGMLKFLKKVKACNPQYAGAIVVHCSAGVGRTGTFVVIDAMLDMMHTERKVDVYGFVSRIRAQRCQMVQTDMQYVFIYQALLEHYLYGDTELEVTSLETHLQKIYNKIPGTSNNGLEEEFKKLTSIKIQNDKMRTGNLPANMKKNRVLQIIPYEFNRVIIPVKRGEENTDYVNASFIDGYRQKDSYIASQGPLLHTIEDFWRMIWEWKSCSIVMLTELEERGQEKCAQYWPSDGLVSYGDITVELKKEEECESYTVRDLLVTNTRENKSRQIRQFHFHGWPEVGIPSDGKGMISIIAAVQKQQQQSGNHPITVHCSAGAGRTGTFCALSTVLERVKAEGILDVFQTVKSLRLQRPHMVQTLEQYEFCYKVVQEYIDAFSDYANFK
UniProt P31749: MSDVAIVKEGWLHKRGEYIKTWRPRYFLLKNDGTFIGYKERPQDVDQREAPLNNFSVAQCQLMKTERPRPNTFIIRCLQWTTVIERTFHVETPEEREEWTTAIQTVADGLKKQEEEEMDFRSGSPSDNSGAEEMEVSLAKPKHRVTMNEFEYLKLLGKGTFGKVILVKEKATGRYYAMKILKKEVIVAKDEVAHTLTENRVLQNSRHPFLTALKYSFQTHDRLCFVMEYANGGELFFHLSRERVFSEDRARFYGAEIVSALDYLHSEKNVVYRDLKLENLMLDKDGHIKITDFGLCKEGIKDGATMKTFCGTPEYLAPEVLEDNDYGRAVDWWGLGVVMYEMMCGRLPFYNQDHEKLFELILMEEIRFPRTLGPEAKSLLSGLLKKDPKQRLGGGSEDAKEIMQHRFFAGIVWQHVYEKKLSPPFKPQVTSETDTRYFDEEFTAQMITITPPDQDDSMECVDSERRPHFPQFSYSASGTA
UniProt P34897: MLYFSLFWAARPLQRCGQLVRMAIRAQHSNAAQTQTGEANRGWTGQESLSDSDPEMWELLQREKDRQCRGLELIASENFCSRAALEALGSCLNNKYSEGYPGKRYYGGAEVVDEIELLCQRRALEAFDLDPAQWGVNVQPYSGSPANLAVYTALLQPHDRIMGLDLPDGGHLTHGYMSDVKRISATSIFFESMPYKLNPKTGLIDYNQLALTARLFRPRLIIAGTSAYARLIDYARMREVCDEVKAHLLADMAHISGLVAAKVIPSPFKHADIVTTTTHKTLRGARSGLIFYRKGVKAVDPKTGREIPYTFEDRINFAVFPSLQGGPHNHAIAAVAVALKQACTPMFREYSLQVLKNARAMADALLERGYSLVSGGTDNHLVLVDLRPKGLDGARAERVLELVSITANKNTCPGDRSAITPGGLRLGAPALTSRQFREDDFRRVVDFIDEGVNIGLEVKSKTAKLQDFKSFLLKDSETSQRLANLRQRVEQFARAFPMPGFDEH
UniProt P21399: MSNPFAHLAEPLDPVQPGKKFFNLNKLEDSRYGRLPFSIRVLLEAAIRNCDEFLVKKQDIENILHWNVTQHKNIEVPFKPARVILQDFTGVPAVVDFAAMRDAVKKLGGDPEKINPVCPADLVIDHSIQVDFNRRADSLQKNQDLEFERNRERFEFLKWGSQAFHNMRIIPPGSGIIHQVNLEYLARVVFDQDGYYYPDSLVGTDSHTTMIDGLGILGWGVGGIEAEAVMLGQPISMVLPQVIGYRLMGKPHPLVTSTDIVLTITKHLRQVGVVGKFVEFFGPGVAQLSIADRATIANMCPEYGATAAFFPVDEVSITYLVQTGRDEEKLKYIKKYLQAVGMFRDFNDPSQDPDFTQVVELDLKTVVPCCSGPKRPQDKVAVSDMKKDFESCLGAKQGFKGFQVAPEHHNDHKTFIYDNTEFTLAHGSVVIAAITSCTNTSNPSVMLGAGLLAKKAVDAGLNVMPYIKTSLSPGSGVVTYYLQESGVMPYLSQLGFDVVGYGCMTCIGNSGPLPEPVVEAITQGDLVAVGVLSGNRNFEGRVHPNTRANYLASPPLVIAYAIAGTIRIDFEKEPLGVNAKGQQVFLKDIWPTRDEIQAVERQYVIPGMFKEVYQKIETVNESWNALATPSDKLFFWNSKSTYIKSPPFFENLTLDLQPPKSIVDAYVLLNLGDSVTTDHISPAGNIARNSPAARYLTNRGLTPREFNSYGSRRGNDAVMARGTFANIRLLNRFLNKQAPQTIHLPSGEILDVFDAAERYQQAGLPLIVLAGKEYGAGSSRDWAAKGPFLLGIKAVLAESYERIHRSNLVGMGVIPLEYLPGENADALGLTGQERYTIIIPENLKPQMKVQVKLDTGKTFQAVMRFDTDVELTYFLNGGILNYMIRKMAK
UniProt P18065: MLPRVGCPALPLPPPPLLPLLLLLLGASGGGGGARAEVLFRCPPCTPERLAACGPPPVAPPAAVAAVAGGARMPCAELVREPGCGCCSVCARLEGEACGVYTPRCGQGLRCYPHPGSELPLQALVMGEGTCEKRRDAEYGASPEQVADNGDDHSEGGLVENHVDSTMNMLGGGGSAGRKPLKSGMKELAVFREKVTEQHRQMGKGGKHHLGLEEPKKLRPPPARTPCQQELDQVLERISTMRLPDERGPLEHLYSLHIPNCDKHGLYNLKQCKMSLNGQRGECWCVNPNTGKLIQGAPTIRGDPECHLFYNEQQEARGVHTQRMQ
UniProt P17010: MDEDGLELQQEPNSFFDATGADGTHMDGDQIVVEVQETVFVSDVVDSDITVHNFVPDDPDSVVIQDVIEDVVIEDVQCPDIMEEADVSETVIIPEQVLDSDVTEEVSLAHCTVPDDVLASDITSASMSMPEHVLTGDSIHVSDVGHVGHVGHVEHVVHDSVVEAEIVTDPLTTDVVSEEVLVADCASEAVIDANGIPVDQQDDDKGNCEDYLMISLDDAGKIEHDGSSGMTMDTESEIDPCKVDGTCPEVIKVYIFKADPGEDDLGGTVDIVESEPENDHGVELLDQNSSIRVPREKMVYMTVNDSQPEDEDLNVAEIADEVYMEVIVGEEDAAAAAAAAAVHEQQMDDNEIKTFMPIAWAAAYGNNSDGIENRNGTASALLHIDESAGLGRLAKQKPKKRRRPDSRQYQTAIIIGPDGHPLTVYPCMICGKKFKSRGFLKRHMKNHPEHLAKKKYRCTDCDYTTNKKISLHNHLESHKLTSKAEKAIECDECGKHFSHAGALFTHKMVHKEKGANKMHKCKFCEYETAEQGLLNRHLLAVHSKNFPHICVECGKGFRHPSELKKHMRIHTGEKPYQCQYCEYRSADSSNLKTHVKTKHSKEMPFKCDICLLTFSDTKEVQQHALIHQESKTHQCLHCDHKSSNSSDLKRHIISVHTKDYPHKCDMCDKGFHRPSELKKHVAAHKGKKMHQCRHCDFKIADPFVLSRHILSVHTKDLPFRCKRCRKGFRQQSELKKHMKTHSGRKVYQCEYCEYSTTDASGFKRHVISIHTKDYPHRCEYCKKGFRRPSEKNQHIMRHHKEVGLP

± gives the standard deviation of the averaged measurements. The list shows a part of the results, in another mix than the full data.

Compound in this test: Nc1ncnc2c1ncn2[C@@H]1O[C@H](COP(=O)(O)OP(=O)(O)OP(=O)(O)O)[C@@H](O)[C@H]1O [adenosine triphosphate]
The test is described as follows: NP40-soluble protein abundance relative to vehicle (solubility fold change) (ratio); higher = more soluble protein in presence of ATP. The conditions noted are these: concentration: 2mM. A digest of the protocol:
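Values are fold changes against the detergent-processed vehicle, based on vsn-normalised intensities. Jurkat crude lysate was treated at eight concentrations from 0.1 to 10 mM (10 min at room temperature, then 3 min at 37 °C), solubilised with 0.8% NP40 and benzonase, ultracentrifuged and analysed by TMT-labelled LC-MS/MS over three independent experiments.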
Take P30042 (UniProt P0DPI2): the NP40-soluble protein abundance amounted to 0.948 ± 0.041. As for M6PR (UniProt P20645), the NP40-soluble protein abundance came out at 0.931 ± 0.027.

As to HOXB4 (UniProt P17483), the NP40-soluble protein abundance came out at 0.979 ± 0.037. As to UniProt P32519 and related entries, the NP40-soluble protein abundance stood at 0.942 ± 0.031. Next, ATP6V1B2 (UniProt P21281): 0.983 ± 0.019. The figure for UniProt P32780 and related entries is 1.03 ± 0.049; for UniProt P31327 and related entries it is 1.08 ± 0.12. Next, UniProt P23396 and related entries: 0.795 ± 0.085; ZKSCAN1 (UniProt P17029): 0.873 ± 0.095. UniProt P22314 and related entries: the NP40-soluble protein abundance was determined as 0.978 ± 0.037.

Regarding ABCD3 (UniProt P28288), the NP40-soluble protein abundance was 1.08 ± 0.13. With UniProt P18433 and related entries, the NP40-soluble protein abundance came out at 1.04 ± 0.095. Next, AKT1 (UniProt P31749): 1.01 ± 0.081; UniProt P33981 and related entries: 1.08 ± 0.039; UniProt P34897 and related entries: 0.966 ± 0.035. In the case of UniProt P31948 and related entries, the NP40-soluble protein abundance came out at 0.943 ± 0.086. On to ACO1 (UniProt P21399), for which the NP40-soluble protein abundance worked out at 0.987 ± 0.07. For the target GOT1 (UniProt P17174), the NP40-soluble protein abundance was 0.94 ± 0.038.

On to IGFBP2 (UniProt P18065), for which the NP40-soluble protein abundance was 1.02 ± 0.054. The figure for CBL (UniProt P22681) is 0.982 ± 0.032; for UniProt P17010 and related entries it is 0.959 ± 0.075.

For the target UniProt P33316 and related entries, the NP40-soluble protein abundance came out at 0.9957 ± 0.0028.

For RFX1 (UniProt P22670), the NP40-soluble protein abundance is 0.992 ± 0.059. The figure for UniProt P19793 and related entries is 1.01 ± 0.11; for UniProt P32019 and related entries it is 1 ± 0.12.
